From the supplement of paper PMC4604168 (melanoma cell lines)
The other results are listed elsewhere or left out. Many values rest on one well or one pass, so single values are uncertain.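 Imaging used 1,536-well plates; nuclei positive for cleaved PARP by antibody were divided by total DNA-stained nuclei to yield the apoptosis fraction. Doses for screening kept most cells viable, and cell lines differ markedly in resting and induced cleaved-PARP levels.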

These compounds were tested on COLO829 (assay: cleaved PARP positive nuclei fraction relative to DMSO control; melanoma cells; higher = more apoptosis). Conditions: library dose: low library concentration; 72 h.
For Cn1cnc2c(F)c(Nc3ccc(Br)cc3Cl)c(C(=O)NOCCO)cc21 [selumetinib] + NCC(=O)Nc1ccc(-n2nc(C(F)(F)F)cc2-c2ccc3c(ccc4ccccc43)c2)cc1 [OSU03012] (first compound 0.015 µM, partner dose 1 µM), the “cleaved PARP positive nuclei fraction” value was 127%.
CC1(C)CCC(c2ccc(Cl)cc2)=C(CN2CCN(c3ccc(C(=O)NS(=O)(=O)c4ccc(N[C@H](CCN5CCOCC5)CSc5ccccc5)c(S(=O)(=O)C(F)(F)F)c4)cc3)CC2)C1 + CC1(C)NC(=O)N(c2ccc([N+](=O)[O-])c(C(F)(F)F)c2)C1=O [nilutamide] (first compound 0.4 µM, partner dose 1 µM) was tested, and the “cleaved PARP positive nuclei fraction” value was 61.7%.
With CC1(C)CCC(c2ccc(Cl)cc2)=C(CN2CCN(c3ccc(C(=O)NS(=O)(=O)c4ccc(N[C@H](CCN5CCOCC5)CSc5ccccc5)c(S(=O)(=O)C(F)(F)F)c4)cc3)CC2)C1 + COc1cc(Nc2ncc(F)c(Nc3ccc4c(n3)NC(=O)C(C)(C)O4)n2)cc(OC)c1OC [Tamatinib] (first compound 0.4 µM, partner dose 0.4 µM) the “cleaved PARP positive nuclei fraction” value was 213%.
With CCCCCCCCc1ccc(CCC(N)(CO)CO)cc1 [fingolimod] + OCCn1cc(-c2cnc3nnn(Cc4ccc5ncccc5c4)c3n2)cn1 [PF04217903] (first compound 2 µM, partner dose 1 µM) the “cleaved PARP positive nuclei fraction” value was 115%.
In the case of C[C@]1(O)C[C@@H](c2nc(-c3ccc4ccc(-c5ccccc5)nc4c3)c3c(N)nccn32)C1 + COc1cc(Nc2ncc(F)c(Nc3ccc4c(n3)NC(=O)C(C)(C)O4)n2)cc(OC)c1OC [Tamatinib] (first compound 0.4 µM, partner dose 0.4 µM), the “cleaved PARP positive nuclei fraction” value is reported as 39.5%.
With CCN(CC)CCNC(=O)c1c(C)[nH]c(/C=C2\C(=O)Nc3ccc(F)cc32)c1C [sunitinib] + O=C(Nc1cccc(Cl)c1)Nc1ncc(CCNc2ncnc3ccsc23)s1 [SNS314] (first compound 0.4 µM, partner dose 0.0008 µM) the “cleaved PARP positive nuclei fraction” value was 120%.
For NC1(c2ccc(-c3nc4ccn5c(=O)[nH]nc5c4cc3-c3ccccc3)cc2)CCC1 + O=C(Nc1cccc(Cl)c1)Nc1ncc(CCNc2ncnc3ccsc23)s1 [SNS314] (first compound 0.4 µM, partner dose 0.0008 µM), the “cleaved PARP positive nuclei fraction” value was 144%.
For C[C@@H](N)c1ccc(C(=O)Nc2ccnc3[nH]ccc23)cc1 + C[C@@H]1CCN(C(=O)CC#N)C[C@@H]1N(C)c1ncnc2[nH]ccc12 [CP690550] (first compound 0.4 µM, partner dose 1 µM), the “cleaved PARP positive nuclei fraction” value was 128%.
With CN(c1ncccc1CNc1nc(Nc2ccc3c(c2)CC(=O)N3)ncc1C(F)(F)F)S(C)(=O)=O + NC(=O)Nc1cc(-c2cccc(F)c2)sc1C(=O)N[C@H]1CCCNC1 [AZD7762] (first compound 0.08 µM, partner dose 0.02 µM) the “cleaved PARP positive nuclei fraction” value was 100%.
For C[C@@H](N)c1ccc(C(=O)Nc2ccnc3[nH]ccc23)cc1 + Cc1cc(N2CCOCC2)cc2[nH]c(-c3c(NC[C@@H](O)c4cccc(Cl)c4)cc[nH]c3=O)nc12 [BMS536924] (first compound 0.4 µM, partner dose 0.2 µM), the “cleaved PARP positive nuclei fraction” value was 57.2%.
With NC1(c2ccc(-c3nc4ccn5c(=O)[nH]nc5c4cc3-c3ccccc3)cc2)CCC1 + CC(C)(C)c1cnc(CSc2cnc(NC(=O)C3CCNCC3)s2)o1 [SNS-032] (first compound 0.4 µM, partner dose 0.01 µM) the “cleaved PARP positive nuclei fraction” value was 145%.
C[C@]1(O)C[C@@H](c2nc(-c3ccc4ccc(-c5ccccc5)nc4c3)c3c(N)nccn32)C1 + NC(=O)Nc1cc(-c2cccc(F)c2)sc1C(=O)N[C@H]1CCCNC1 [AZD7762] (first compound 0.4 µM, partner dose 0.02 µM) was tested, and the “cleaved PARP positive nuclei fraction” value was 71.3%.
In the case of CCN(CC)CCNC(=O)c1c(C)[nH]c(/C=C2\C(=O)Nc3ccc(F)cc32)c1C [sunitinib] + C=CCn1c(=O)c2cnc(Nc3ccc(N4CCN(C)CC4)cc3)nc2n1-c1cccc(C(C)(C)O)n1 [MK1775] (first compound 0.4 µM, partner dose 0.02 µM), the “cleaved PARP positive nuclei fraction” value is reported as 158%.
For COc1ccc(C2=N[C@@H](c3ccc(Cl)cc3)[C@@H](c3ccc(Cl)cc3)N2C(=O)N2CCNC(=O)C2)c(OC(C)C)c1 [Nutlin-3] + CC1(C)NC(=O)N(c2ccc([N+](=O)[O-])c(C(F)(F)F)c2)C1=O [nilutamide] (first compound 0.1 µM, partner dose 1 µM), the “cleaved PARP positive nuclei fraction” value was 78%.
With Cn1cnc2c(F)c(Nc3ccc(Br)cc3Cl)c(C(=O)NOCCO)cc21 [selumetinib] + O=C(CCCCCCC(=O)Nc1ccccc1)NO [vorinostat] (first compound 0.015 µM, partner dose 0.08 µM) the “cleaved PARP positive nuclei fraction” value was 125%.
For COc1ccc(C2=N[C@@H](c3ccc(Cl)cc3)[C@@H](c3ccc(Cl)cc3)N2C(=O)N2CCNC(=O)C2)c(OC(C)C)c1 [Nutlin-3] + Cc1ccc(NC(=O)c2cccc(N(C)C)c2)cc1NC(=O)c1ccc(O)cc1 [ZM336372] (first compound 0.1 µM, partner dose 2 µM), the “cleaved PARP positive nuclei fraction” value was 82.9%.
In the case of CS(=O)(=O)c1ccc(C(=O)Nc2ccc(Cl)c(-c3ccccn3)c2)c(Cl)c1 [vismodegib] + O=C(O)c1ccc(-c2c[nH]c3ncc(-c4ccccc4)cc23)cc1C1CCCC1 [GSK650394] (first compound 1 µM, partner dose 0.16 µM), the “cleaved PARP positive nuclei fraction” value is reported as 36.6%.
With C[C@]1(O)C[C@@H](c2nc(-c3ccc4ccc(-c5ccccc5)nc4c3)c3c(N)nccn32)C1 + CC(C)(C)c1cnc(CSc2cnc(NC(=O)C3CCNCC3)s2)o1 [SNS-032] (first compound 0.4 µM, partner dose 0.01 µM) the “cleaved PARP positive nuclei fraction” value was 128%.
With CC(=O)O[C@@]12CO[C@@H]1C[C@H](O)[C@@]1(C)C(=O)[C@H](O)C3=C(C)[C@@H](OC(=O)[C@H](O)[C@@H](NC(=O)OC(C)(C)C)c4ccccc4)C[C@@](O)([C@@H](OC(=O)c4ccccc4)[C@H]21)C3(C)C [Docetaxel] + COc1cc(Nc2ncc(F)c(Nc3ccc4c(n3)NC(=O)C(C)(C)O4)n2)cc(OC)c1OC [Tamatinib] (first compound 0.0001 µM, partner dose 0.4 µM) the “cleaved PARP positive nuclei fraction” value was 316%.
CS(=O)(=O)c1ccc(C(=O)Nc2ccc(Cl)c(-c3ccccn3)c2)c(Cl)c1 [vismodegib] + CO[C@@H]1[C@H](N(C)C(=O)c2ccccc2)C[C@H]2O[C@]1(C)n1c3ccccc3c3c4c(c5c6ccccc6n2c5c31)C(=O)NC4 [Midostaurin] (first compound 1 µM, partner dose 0.08 µM) was tested, and the “cleaved PARP positive nuclei fraction” value was 112%.
In the case of CC(=O)O[C@@]12CO[C@@H]1C[C@H](O)[C@@]1(C)C(=O)[C@H](O)C3=C(C)[C@@H](OC(=O)[C@H](O)[C@@H](NC(=O)OC(C)(C)C)c4ccccc4)C[C@@](O)([C@@H](OC(=O)c4ccccc4)[C@H]21)C3(C)C [Docetaxel] + C[C@@H]1CCN(C(=O)CC#N)C[C@@H]1N(C)c1ncnc2[nH]ccc12 [CP690550] (first compound 0.0001 µM, partner dose 1 µM), the “cleaved PARP positive nuclei fraction” value is reported as 158%.
In the case of Cn1cnc2c(F)c(Nc3ccc(Br)cc3Cl)c(C(=O)NOCCO)cc21 [selumetinib] + O=C(Nc1cccc(Cl)c1)Nc1ncc(CCNc2ncnc3ccsc23)s1 [SNS314] (first compound 0.015 µM, partner dose 0.0008 µM), the “cleaved PARP positive nuclei fraction” value is reported as 41.4%.
In the case of NC(=O)c1ccc(N(C(N)=O)c2c(F)cccc2F)nc1-c1ccc(F)cc1F + OCCn1cc(-c2cnc3nnn(Cc4ccc5ncccc5c4)c3n2)cn1 [PF04217903] (first compound 0.4 µM, partner dose 1 µM), the “cleaved PARP positive nuclei fraction” value is reported as 102%.
CC1(C)CCC(c2ccc(Cl)cc2)=C(CN2CCN(c3ccc(C(=O)NS(=O)(=O)c4ccc(N[C@H](CCN5CCOCC5)CSc5ccccc5)c(S(=O)(=O)C(F)(F)F)c4)cc3)CC2)C1 + CO[C@@H]1[C@H](N(C)C(=O)c2ccccc2)C[C@H]2O[C@]1(C)n1c3ccccc3c3c4c(c5c6ccccc6n2c5c31)C(=O)NC4 [Midostaurin] (first compound 0.4 µM, partner dose 0.08 µM) was tested, and the “cleaved PARP positive nuclei fraction” value was 87%.
